From paper PMC10005780
Results are given in words; binding and its absence hold for the method and conditions named. Binding seen in cells or lysates may run through a third protein. Some entries that bind do so weakly or less than the wild type.

Amino acid sequences for entries named in this document (tags omitted).
UniProt P61026: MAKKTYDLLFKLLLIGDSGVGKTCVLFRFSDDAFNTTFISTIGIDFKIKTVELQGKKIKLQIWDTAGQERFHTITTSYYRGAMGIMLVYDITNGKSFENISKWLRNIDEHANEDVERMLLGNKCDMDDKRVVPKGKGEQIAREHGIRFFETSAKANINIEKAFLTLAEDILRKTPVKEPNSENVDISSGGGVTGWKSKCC
UniProt Q9NQT8: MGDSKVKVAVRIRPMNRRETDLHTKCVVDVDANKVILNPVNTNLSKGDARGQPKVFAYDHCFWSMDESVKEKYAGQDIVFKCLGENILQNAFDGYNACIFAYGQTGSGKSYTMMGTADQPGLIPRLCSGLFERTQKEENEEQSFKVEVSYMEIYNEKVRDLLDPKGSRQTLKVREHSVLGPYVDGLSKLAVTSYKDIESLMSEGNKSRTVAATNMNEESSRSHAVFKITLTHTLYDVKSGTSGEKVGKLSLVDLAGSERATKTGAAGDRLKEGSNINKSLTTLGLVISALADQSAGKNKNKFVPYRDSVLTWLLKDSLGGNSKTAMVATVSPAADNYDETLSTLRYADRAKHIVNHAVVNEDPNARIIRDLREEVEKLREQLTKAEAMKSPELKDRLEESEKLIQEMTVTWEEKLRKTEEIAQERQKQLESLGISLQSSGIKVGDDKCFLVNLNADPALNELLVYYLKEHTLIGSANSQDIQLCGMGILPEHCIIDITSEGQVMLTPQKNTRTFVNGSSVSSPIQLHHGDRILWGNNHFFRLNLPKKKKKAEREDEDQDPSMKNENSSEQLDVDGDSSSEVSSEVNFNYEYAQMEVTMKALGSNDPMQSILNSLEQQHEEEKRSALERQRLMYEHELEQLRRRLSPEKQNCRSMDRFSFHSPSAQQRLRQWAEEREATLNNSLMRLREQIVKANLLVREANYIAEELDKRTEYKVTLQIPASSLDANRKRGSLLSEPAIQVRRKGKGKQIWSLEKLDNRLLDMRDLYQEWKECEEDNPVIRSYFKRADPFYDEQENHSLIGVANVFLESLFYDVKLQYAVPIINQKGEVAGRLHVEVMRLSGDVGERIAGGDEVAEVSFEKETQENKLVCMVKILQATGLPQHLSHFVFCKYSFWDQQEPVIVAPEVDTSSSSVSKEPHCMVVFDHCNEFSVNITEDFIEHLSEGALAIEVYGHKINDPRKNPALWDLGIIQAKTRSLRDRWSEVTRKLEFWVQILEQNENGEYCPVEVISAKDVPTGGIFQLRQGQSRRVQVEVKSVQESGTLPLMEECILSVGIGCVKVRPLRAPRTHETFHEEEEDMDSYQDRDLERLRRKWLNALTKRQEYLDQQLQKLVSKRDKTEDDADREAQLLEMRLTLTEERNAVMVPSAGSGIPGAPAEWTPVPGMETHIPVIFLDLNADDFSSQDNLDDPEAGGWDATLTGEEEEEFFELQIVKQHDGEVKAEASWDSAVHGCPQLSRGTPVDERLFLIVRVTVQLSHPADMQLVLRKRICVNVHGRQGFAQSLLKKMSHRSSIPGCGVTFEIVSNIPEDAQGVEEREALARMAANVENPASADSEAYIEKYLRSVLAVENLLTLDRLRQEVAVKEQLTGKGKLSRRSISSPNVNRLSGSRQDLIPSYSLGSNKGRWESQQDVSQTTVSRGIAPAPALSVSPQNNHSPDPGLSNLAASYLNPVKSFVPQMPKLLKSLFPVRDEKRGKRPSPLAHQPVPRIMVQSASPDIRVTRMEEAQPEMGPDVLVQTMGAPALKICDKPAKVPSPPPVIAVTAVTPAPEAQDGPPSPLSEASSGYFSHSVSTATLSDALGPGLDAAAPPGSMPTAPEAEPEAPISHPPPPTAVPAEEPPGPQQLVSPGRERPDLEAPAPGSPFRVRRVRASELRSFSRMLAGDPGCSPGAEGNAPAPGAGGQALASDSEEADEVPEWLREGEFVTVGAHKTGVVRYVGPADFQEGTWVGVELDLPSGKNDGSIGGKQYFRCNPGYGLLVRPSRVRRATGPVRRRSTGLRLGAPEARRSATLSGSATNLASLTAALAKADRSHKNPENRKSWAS

Molecular target: HA-Rab10 WT (UniProt P61026)
Experiment: co-IP; Lysates of N2A cells co-transfected with HA-Rab10 and GFP-KIF13B, starved 1 hr, stimulated or not with 50 ng/mL BDNF for 30 min; anti-HA magnetic beads overnight at 4°C; 25 mM MOPS pH 7.2, 100 mM KCl, 10 mM MgCl2, 0.5% IGEPAL CA-630; Western blot with anti-HA and anti-GFP; more KIF13B co-precipitated with BDNF (average twofold increase of the KIF13B/Rab10 ratio)

binding: binds
Substance: GFP-KIF13B (from UniProt Q9NQT8 1-1826)
